{"source": "patent US20260382581A1", "about": "“COMPOSITIONS COMPRISING CYTISINE IN THE TREATMENT AND/OR PREVENTION OF ADDICTION IN SUBJECTS IN NEED THEREOF” (published 2026)", "key": {"[1]": {"tested_on": "adult smokers", "assay": "ORCA-1: CO-confirmed quit rate at Week 4 and continuous abstinence Weeks 5-8", "details": "3.0 mg TID vs placebo; listed as cytisine", "protocol": "This was a six-arm, multi-center, double-blind, randomized, placebo-controlled study conducted in male or female adults≥18 years of age, smoking 10+ cigarettes daily, and willing to set a quit date that is 5-7 days after randomization. This study was designed to evaluate the effectiveness of 1.5 mg of cytisine versus placebo using the commercial titration schedule approved in Central and Eastern Europe. The study also evaluated the effectiveness of a simplified TID dosing schedule for 1.5 mg and an increased dose of 3.0 mg (using both the commercial titration (COM) and simplified TID dosing schedules). The overall goal of the study was to obtain estimates of effect size for efficacy and safety endpoints that will be used to inform the design of future Phase 3 studies.\nThe secondary efficacy endpoint was the quit rate (confirmed by CO<10 ppm) and included an analysis at week 4 (i.e., the end of treatment) and sustained (4-week) abstinence from Week 5 to Week 8 (i.e., off treatment).\nThe primary outcome (Cigarette Score) and the main secondary abstinence outcomes were subjected to sensitivity analyses. The main secondary abstinence outcomes were the initial quit rate at Week 4 and continued 4-week abstinence through Week 5 to Week 8, confirmed by expired carbon monoxide (CO) of <10 ppm designated as Cess/W5-8/CO Success. […]"}, "[2]": {"tested_on": "adult users of nicotine e-cigarettes", "assay": "claude (Example 3): vaping cessation from Week 9 to Week 12 (primary endpoint; odds ratios, relative risks, risk differences, exact tests)", "details": "vaping cessation Week 9 to 12, Table 61 (all, N = 160), vs placebo; listed as Cytisinicline", "protocol": "This Example describes a Phase 2 ORCA-V1 trial evaluated 160 adult e-cigarette users at 5 clinical trial locations in the United States. The trial completed enrollment in approximately 4 months. ORCA-V1 participants were randomized to receive 3 mg cytisinicline three times daily or placebo for 12 weeks in combination with standard cessation behavioral support. The dose and administration of cytisinicline in the ORCA-V1 study is identical to that used in the Phase 3 registrational trials for smoking cessation.\nTo evaluate cytisinicline as an aid to vaping cessation in adult users of nicotine e-cigarettes who intend to quit, a multi-center, double-blind, randomized, placebo-controlled study was conducted. Subjects were randomized 2:1 (100 cytisinicline: 50 Placebo) with 160 total randomized (FIG. 56). Subjects were stratified on whether they have smoked>100 cigarettes in their lifetime (yes vs no) (FIG. 57). Study size will have 95% power to detect a ~19% reduction in cotinine levels from baseline. Odds ratio (95% confidence interval) will exclude one when cytisinicline abstinence success is >18%; Example, a 6% placebo rate versus 18% outcome or odds ratio of 3.44 will be significant. Missing data may be assumed as reported vaping. […]\nPrimary Marginal and Secondary Outcomes: the primary outcome analysis (not stratified) and the secondary outcomes are analyzed using Fisher's exact test. […]"}}, "note": "The source holds more than one record for some entries. This list holds those alone. An entry can have further records. Values that stand side by side do not match, cause unknown; dose, time, organism, isomer or construct need not be as stated for each record."}
{"smiles": "O=c1cccc2n1C[C@@H]1CNC[C@H]2C1", "values": [{"measurement": "OR, abstinence Weeks 5 to 8", "setting": "[1]", "result": "5.04 (95% CI: 1.42, 22.32) and 5.04"}, {"measurement": "OR, quit rate at Week 4", "setting": "[1]", "result": "6.31 (95% CI: 2.28, 18.45) and 6.31"}, {"measurement": "Odds Ratio", "setting": "[2]", "result": "2.6199 and Odds Ratio = 2.6199"}]}
